Data as given in PubChem BioAssay AID1259425 (University of Nebraska Medical Center, 2018)
In all, the deposit lists about 14,000 reagents; shown is an unselected part. Further read-outs or replicates are left out here. Not stated in the record: the time to read-out.

Purpose: 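Seek colon cancer weak points whose silencing resembles KSR1 loss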 (primary screen)
Cell system: HCT116 human colon cancer cells
Reagent: siRNA pool against human genes, 50 nM siRNA
Measured: 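mRNA of six signature genes measured together by branched-DNA assay after 50 nM siRNA pool, blank removed, divided by geometric mean of two housekeeping genes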
Scale: BNIP3L mRNA: higher = more BNIP3L transcript after knockdown; NDRG1 mRNA: higher = more NDRG1 transcript after knockdown

What did the screen give for SMARCE1 (SWI/SNF related BAF chromatin remodeling complex subunit E1)?
BNIP3L mRNA, set 1: 0.0243; NDRG1 mRNA, set 1: 0.17

Which result is listed for TFB1M (transcription factor B1, mitochondrial)?
BNIP3L mRNA, set 1: 0.151; NDRG1 mRNA, set 1: 0.178

For WDR24 (WD repeat domain 24), how do the results read?
BNIP3L mRNA, set 1: 0.204; NDRG1 mRNA, set 1: 0.221

With BTNL2 (butyrophilin like 2), how do the results read?
BNIP3L mRNA, set 1: 0.124; NDRG1 mRNA, set 1: 0.382

What did the screen give for GAMT (guanidinoacetate N-methyltransferase)?
BNIP3L mRNA, set 1: 0.115; NDRG1 mRNA, set 1: 0.0692

What did the screen give for C14orf119 (chromosome 14 open reading frame 119)?
BNIP3L mRNA, set 1: 0.206; NDRG1 mRNA, set 1: 0.238

What is on record for ENKD1 (enkurin domain containing 1)?
BNIP3L mRNA, set 1: 0.229; NDRG1 mRNA, set 1: 0.109

For CELA3B (chymotrypsin like elastase 3B), what does the deposit list?
BNIP3L mRNA, set 1: 0.14; NDRG1 mRNA, set 1: 0.491

How did the screen score CLASP2 (cytoplasmic linker associated protein 2)?
BNIP3L mRNA, set 1: 0.08; NDRG1 mRNA, set 1: 0.0844

For SSR2 (signal sequence receptor subunit 2), what was measured?
BNIP3L mRNA, set 1: 0.0701; NDRG1 mRNA, set 1: 0.166

What did the screen give for SLC49A4?
BNIP3L mRNA, set 1: 0.0914; NDRG1 mRNA, set 1: 0.367

With SCRIB (scribble planar cell polarity protein), how do the results read?
BNIP3L mRNA, set 1: 0.133; NDRG1 mRNA, set 1: 0.0926

Which result is listed for INTS14 (integrator complex subunit 14)?
BNIP3L mRNA, set 1: 0.121; NDRG1 mRNA, set 1: 0.261

For PTPRE (protein tyrosine phosphatase receptor type E), what does the deposit list?
BNIP3L mRNA, set 1: 0.103; NDRG1 mRNA, set 1: 0.131

How did the screen score RPL30 (ribosomal protein L30)?
BNIP3L mRNA, set 1: 0.252; NDRG1 mRNA, set 1: 0.18

With TECTA (tectorin alpha), what does the deposit list?
BNIP3L mRNA, set 1: 0.0444; NDRG1 mRNA, set 1: 0.126

Sorted by “NDRG1 mRNA, set 1” (ascending): some entries from above
SCRIB (scribble planar cell polarity protein) → BNIP3L mRNA, set 1: 0.133; NDRG1 mRNA, set 1: 0.0926
PTPRE (protein tyrosine phosphatase receptor type E) → BNIP3L mRNA, set 1: 0.103; NDRG1 mRNA, set 1: 0.131
INTS14 (integrator complex subunit 14) → BNIP3L mRNA, set 1: 0.121; NDRG1 mRNA, set 1: 0.261

More records:
With PSMB10 (proteasome 20S subunit beta 10), what was measured?
BNIP3L mRNA, set 1: 0.122; NDRG1 mRNA, set 1: 0.123

For IDH3G, what was measured?
BNIP3L mRNA, set 1: 0.0992; NDRG1 mRNA, set 1: 0.0665

Which result is listed for NXN (nucleoredoxin)?
BNIP3L mRNA, set 1: 0.0716; NDRG1 mRNA, set 1: 0.13

For NYX (nyctalopin), how do the results read?
BNIP3L mRNA, set 1: 0.0568; NDRG1 mRNA, set 1: 0.217

For RTN3 (reticulon 3), what does the deposit list?
BNIP3L mRNA, set 1: 0.0708; NDRG1 mRNA, set 1: 0.521

How did the screen score MAP3K3 (mitogen-activated protein kinase kinase kinase 3)?
BNIP3L mRNA, set 1: 0.036; NDRG1 mRNA, set 1: 0.0447

What did the screen give for HACD3 (3-hydroxyacyl-CoA dehydratase 3)?
BNIP3L mRNA, set 1: 0.187; NDRG1 mRNA, set 1: 0.138

With KIF1B (kinesin family member 1B), what does the deposit list?
BNIP3L mRNA, set 1: 0.08; NDRG1 mRNA, set 1: 0.173

For NSFL1C (NSFL1 cofactor), how do the results read?
BNIP3L mRNA, set 1: 0.179; NDRG1 mRNA, set 1: 0.322

For KRTAP1-1 (keratin associated protein 1-1), what does the deposit list?
BNIP3L mRNA, set 1: 0.108; NDRG1 mRNA, set 1: 0.0482

What is on record for PIK3R3 (phosphoinositide-3-kinase regulatory subunit 3)?
BNIP3L mRNA, set 1: 0.23; NDRG1 mRNA, set 1: 0.215

For FADD (Fas associated via death domain), what was measured?
BNIP3L mRNA, set 1: 0.0602; NDRG1 mRNA, set 1: 0.0614

What did the screen give for AARSD1 (alanyl-tRNA synthetase domain containing 1)?
BNIP3L mRNA, set 1: 0.0686; NDRG1 mRNA, set 1: 0.335

What is on record for NGRN (neugrin, neurite outgrowth associated)?
BNIP3L mRNA, set 1: 0.102; NDRG1 mRNA, set 1: 0.224

For IFNAR1 (interferon alpha and beta receptor subunit 1), what does the deposit list?
BNIP3L mRNA, set 1: 0.0422; NDRG1 mRNA, set 1: 0.328

What did the screen give for VWA5A (von Willebrand factor A domain containing 5A)?
BNIP3L mRNA, set 1: 0.0907; NDRG1 mRNA, set 1: 0.106

For ANKRD39 (ankyrin repeat domain 39), what was measured?
BNIP3L mRNA, set 1: 0.124; NDRG1 mRNA, set 1: 0.302

What is on record for MYCNOS (MYCN opposite strand)?
BNIP3L mRNA, set 1: 0.107; NDRG1 mRNA, set 1: 0.125

Which result is listed for GJB3 (gap junction protein beta 3)?
BNIP3L mRNA, set 1: 0.0459; NDRG1 mRNA, set 1: 0.168

For TNNI1 (troponin I1, slow skeletal type), what was measured?
BNIP3L mRNA, set 1: 0.0979; NDRG1 mRNA, set 1: 0.0862
